# Source: PubChem BioAssay AID445 (National Center for Advancing Translational Sciences (NCATS), 2006)
# The other results are listed elsewhere or left out. These are further read-outs of the screen, such as a control signal, another cell line or another target. No call is given for them. Most of these compounds were active or inconclusive in the main read-out, so they are no random draw. The note in brackets gives the kind of curve behind each potency; many fits are weak.
# Test: IkB Signaling
# Details: ABC-DLBCL IkBa-CBG/CBR dual luciferase ratio (green luciferase fused to IkBa over red control in OCI-Ly3 lymphoma cells), 4 h; measured here: control luc red channel unless noted
# How it was run: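 Curves were fitted separately to fusion (green), unfused (red) and ratio luminescence, then classed by r2, magnitude and activity. Cells: OCI-Ly3, 4 h compound plus doxycycline at 37C; 10 uM MG-132 defined full response.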
row,Structure (SMILES),AC50
1,O=C(Nc1ccc(-c2nc3ccccc3o2)cc1)C1CCCO1 (configuration not stated),"7.94 µM [falling, partial curve]"
2,CN(C)c1ccc(C(=O)NCc2ccc3c(c2)CCN3C(=O)c2ccccc2)cc1,"0.00631 µM [rising, full curve, poor fit]"
3,COc1ccc(-c2nnn(CC(=O)c3c[nH]c4ccccc34)n2)cc1OC,"25.1 µM [falling, single point]"
4,CN(C)c1ccc(CNC(=O)c2sc3ncccc3c2-n2cccc2)cc1,"25.1 µM [falling, single point]"
5,Cc1ccnc(NC(=O)Nc2ccc(F)cc2)c1,"7.94 µM [falling, partial curve]"
6,Cc1ccc2cc(CN(Cc3ccco3)C(=O)c3cccs3)c(=O)[nH]c2c1,"20 µM [falling, partial curve]"
7,COc1cc(Cl)c(NS(=O)(=O)c2ccc(-c3coc(C)n3)cc2)c(OC)c1,"3.16 µM [falling, partial curve]"
8,Cc1ccc(-c2cc(C(F)(F)F)c(C#N)c(SCC(=O)Nc3ccccc3F)n2)cc1,"15.8 µM [falling, partial curve]"
9,COc1cccc(CNC(=O)CN2C(=O)CSc3ccc(S(=O)(=O)N4CCCC4)cc32)c1,"39.8 µM [falling, single point]"
10,CCCN(CCC)CCCNC(=O)c1cn(CC)c2ccc(S(=O)(=O)N3CCc4ccccc4C3)cc2c1=O,"15.8 µM [falling, single point]"
11,COCCCNc1nc2ccccc2nc1NS(=O)(=O)c1cccs1,"7.94 µM [falling, partial curve]"
12,Cc1ccc(Nc2c(-c3ccc(N4CCOCC4)cc3)nc3ncccn23)cc1C,"20 µM [falling, single point]"
13,CCOC(=O)c1ccc2c(c1)N(CC(=O)Nc1ccc(CC)cc1)C(=O)c1ccccc1S2,"1 µM [falling, full curve]"
14,CCN(c1ccc(C)cc1C)S(=O)(=O)c1nnc(NC(=O)c2ccccc2OC)s1,"31.6 µM [falling, single point]"
15,CCOC(=O)c1oc2ccc(S(=O)(=O)n3nc(-c4cc(OCC)c(OCC)c(OCC)c4)cc3N)cc2c1C,"15.8 µM [falling, partial curve]"
16,CCOC(=O)c1ccc(NC(=O)CC2C(=O)N(c3ccccc3)C(=O)N2C2CCCCC2)cc1 (configuration not stated),"25.1 µM [falling, partial curve]"
17,O=C(CSc1oc(-c2ccco2)nc1S(=O)(=O)c1ccccc1)c1ccc(Cl)cc1,"0.794 µM [falling, full curve, poor fit]"

# An excerpt of these results, with bars between the fields:
row | Structure (SMILES) | AC50
4 | CN(C)c1ccc(CNC(=O)c2sc3ncccc3c2-n2cccc2)cc1 | 25.1 µM [falling, single point]
5 | Cc1ccnc(NC(=O)Nc2ccc(F)cc2)c1 | 7.94 µM [falling, partial curve]
